# US20090239850A1
# Chains of the proteins cited; added tags and fusions are not shown. Lines headed by an entry give the natural chain unless they say otherwise; changes in a name come on top. Residues count along the entry.
# UniProt Q05397: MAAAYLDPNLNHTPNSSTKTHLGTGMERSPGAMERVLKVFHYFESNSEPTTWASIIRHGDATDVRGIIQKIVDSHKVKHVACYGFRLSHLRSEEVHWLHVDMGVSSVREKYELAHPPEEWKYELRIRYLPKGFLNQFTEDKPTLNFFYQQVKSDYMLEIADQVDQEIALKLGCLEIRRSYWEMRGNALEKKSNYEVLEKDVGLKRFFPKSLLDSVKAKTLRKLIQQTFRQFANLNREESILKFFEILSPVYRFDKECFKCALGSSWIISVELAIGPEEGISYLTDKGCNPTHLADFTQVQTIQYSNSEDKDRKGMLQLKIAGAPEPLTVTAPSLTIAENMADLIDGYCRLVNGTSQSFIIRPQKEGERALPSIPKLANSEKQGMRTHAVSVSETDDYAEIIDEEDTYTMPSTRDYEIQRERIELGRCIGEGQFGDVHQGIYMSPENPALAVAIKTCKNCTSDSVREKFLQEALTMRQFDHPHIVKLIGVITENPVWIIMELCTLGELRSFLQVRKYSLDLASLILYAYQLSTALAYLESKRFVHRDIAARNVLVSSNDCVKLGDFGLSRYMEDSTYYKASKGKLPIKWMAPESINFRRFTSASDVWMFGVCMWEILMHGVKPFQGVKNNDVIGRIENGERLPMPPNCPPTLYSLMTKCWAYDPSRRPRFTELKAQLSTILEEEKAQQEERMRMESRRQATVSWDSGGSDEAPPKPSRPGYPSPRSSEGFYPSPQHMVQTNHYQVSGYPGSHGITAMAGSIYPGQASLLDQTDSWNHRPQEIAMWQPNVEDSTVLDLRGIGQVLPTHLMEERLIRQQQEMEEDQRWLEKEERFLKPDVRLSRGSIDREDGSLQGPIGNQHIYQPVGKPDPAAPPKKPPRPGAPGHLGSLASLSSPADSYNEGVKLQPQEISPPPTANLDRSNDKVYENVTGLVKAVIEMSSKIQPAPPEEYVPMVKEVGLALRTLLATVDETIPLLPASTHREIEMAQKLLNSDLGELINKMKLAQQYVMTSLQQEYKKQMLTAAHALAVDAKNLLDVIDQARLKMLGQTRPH
# human full length FAK (Focal Adhesion Kinase): residues 2-1052 of Q05397
# UniProt P35916, residues 25-1363: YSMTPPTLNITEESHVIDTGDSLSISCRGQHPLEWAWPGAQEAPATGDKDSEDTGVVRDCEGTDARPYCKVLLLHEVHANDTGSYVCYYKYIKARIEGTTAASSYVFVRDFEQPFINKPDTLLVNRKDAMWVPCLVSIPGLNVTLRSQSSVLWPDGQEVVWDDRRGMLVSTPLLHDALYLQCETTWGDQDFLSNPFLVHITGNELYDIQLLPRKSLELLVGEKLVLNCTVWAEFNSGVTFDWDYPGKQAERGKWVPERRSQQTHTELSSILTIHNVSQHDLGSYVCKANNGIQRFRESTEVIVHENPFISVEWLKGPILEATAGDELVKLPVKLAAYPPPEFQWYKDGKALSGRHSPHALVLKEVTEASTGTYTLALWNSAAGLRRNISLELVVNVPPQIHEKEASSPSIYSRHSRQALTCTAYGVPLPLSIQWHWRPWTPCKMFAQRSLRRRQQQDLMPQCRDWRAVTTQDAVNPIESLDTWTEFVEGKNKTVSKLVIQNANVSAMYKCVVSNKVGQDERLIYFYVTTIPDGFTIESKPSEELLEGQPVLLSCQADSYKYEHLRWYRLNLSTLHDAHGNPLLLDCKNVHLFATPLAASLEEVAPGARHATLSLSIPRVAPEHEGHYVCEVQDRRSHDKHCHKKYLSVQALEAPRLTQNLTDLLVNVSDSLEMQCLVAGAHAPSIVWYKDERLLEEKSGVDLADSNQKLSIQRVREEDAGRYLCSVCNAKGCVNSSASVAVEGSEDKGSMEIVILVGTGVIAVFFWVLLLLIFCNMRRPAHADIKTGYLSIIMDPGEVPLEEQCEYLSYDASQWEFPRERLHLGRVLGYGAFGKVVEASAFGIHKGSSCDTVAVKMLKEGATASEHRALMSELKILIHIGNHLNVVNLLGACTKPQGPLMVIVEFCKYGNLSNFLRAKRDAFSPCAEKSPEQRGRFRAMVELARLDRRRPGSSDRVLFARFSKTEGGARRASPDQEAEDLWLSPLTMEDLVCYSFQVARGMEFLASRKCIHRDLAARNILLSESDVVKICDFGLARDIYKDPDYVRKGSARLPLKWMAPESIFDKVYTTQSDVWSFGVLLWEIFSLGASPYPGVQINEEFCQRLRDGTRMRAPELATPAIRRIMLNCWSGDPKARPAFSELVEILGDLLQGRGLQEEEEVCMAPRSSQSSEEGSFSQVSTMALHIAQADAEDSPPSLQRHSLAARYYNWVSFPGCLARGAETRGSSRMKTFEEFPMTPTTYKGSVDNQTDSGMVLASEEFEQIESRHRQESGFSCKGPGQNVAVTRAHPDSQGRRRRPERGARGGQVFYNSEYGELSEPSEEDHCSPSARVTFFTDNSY
# These are yes or no findings as the source states them, for the method shown. For some assays here: In cells and extracts the contact can be indirect. Some results given as binding are weak or reduced against the parent protein; the word gives no strength.
# What was measured:
# [1] = target: human full length FAK (Focal Adhesion Kinase) (human) (UniProt Q05397); test: pull-down assay with human full length FAK
# [2] = target: Focal Adhesion Kinase (FAK) (UniProt Q05397); test: binding studies, not further described
Substance,binding [1],binding [2]
wild type p53 protein (from UniProt P04637 1-393),binds,
vascular endothelial growth factor receptor 3 (VEGFR-3) (from UniProt P35916 25-1363),,binds
